Experimental data published in article PMC7463958.
No constants are given. Whether binding was seen depends on the method and setting. In cells and extracts the contact can be indirect. Some binding calls cover weakened binding; strength is not graded here. For part of these data: Sequences can lack the tags named with a protein.

Protein sequences, listed by entry. Tags and fused reporters are not part of them. Residues count along the entry.
UniProt P28360: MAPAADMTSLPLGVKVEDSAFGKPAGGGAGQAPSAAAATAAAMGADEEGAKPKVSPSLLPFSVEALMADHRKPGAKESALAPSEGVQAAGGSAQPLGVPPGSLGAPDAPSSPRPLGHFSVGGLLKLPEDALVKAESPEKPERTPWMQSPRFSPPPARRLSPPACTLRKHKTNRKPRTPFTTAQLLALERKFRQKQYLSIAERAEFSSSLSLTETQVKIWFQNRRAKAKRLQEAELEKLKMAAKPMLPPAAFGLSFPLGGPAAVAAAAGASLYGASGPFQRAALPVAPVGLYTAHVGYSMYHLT
UniProt P13297: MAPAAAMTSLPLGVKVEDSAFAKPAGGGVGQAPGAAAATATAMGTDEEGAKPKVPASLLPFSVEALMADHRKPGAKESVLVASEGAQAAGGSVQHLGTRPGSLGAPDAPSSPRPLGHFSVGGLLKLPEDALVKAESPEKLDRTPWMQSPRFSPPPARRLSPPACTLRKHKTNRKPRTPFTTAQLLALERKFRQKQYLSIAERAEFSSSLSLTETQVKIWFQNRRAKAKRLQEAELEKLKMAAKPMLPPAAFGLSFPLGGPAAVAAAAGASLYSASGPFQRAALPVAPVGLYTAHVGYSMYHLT
UniProt P17948, residues 27-1338: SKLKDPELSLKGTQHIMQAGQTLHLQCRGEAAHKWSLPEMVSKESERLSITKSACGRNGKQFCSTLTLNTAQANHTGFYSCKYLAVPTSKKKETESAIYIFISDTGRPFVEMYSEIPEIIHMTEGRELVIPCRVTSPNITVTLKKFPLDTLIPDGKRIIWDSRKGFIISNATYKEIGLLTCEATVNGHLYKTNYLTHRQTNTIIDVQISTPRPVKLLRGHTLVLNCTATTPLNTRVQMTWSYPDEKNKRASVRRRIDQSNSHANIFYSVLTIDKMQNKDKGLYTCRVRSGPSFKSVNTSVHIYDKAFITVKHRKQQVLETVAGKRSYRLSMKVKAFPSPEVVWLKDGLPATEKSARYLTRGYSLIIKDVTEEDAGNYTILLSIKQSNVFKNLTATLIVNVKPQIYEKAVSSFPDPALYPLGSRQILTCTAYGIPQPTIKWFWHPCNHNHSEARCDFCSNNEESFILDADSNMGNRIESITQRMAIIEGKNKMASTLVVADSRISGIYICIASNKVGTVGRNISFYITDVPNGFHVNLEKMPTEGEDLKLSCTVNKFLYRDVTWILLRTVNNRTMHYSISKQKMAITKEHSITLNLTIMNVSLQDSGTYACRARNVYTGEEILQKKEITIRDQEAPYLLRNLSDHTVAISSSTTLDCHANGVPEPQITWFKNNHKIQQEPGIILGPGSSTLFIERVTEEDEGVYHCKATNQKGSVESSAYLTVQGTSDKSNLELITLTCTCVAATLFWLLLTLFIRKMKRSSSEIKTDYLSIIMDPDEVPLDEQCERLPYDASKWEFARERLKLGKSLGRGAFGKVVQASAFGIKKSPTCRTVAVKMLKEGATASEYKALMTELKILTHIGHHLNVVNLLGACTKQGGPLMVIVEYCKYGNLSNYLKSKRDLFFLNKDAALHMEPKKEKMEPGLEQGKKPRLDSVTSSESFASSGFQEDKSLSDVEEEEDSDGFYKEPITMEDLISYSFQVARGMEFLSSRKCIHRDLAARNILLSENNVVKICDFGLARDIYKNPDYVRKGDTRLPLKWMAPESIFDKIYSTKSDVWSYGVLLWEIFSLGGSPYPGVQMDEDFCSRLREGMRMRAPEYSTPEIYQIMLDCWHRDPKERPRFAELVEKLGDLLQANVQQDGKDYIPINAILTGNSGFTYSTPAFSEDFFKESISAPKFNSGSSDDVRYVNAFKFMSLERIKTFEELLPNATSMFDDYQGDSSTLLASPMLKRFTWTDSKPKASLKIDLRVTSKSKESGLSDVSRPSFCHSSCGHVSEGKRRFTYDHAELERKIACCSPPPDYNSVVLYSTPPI
UniProt P35968, residues 20-1356: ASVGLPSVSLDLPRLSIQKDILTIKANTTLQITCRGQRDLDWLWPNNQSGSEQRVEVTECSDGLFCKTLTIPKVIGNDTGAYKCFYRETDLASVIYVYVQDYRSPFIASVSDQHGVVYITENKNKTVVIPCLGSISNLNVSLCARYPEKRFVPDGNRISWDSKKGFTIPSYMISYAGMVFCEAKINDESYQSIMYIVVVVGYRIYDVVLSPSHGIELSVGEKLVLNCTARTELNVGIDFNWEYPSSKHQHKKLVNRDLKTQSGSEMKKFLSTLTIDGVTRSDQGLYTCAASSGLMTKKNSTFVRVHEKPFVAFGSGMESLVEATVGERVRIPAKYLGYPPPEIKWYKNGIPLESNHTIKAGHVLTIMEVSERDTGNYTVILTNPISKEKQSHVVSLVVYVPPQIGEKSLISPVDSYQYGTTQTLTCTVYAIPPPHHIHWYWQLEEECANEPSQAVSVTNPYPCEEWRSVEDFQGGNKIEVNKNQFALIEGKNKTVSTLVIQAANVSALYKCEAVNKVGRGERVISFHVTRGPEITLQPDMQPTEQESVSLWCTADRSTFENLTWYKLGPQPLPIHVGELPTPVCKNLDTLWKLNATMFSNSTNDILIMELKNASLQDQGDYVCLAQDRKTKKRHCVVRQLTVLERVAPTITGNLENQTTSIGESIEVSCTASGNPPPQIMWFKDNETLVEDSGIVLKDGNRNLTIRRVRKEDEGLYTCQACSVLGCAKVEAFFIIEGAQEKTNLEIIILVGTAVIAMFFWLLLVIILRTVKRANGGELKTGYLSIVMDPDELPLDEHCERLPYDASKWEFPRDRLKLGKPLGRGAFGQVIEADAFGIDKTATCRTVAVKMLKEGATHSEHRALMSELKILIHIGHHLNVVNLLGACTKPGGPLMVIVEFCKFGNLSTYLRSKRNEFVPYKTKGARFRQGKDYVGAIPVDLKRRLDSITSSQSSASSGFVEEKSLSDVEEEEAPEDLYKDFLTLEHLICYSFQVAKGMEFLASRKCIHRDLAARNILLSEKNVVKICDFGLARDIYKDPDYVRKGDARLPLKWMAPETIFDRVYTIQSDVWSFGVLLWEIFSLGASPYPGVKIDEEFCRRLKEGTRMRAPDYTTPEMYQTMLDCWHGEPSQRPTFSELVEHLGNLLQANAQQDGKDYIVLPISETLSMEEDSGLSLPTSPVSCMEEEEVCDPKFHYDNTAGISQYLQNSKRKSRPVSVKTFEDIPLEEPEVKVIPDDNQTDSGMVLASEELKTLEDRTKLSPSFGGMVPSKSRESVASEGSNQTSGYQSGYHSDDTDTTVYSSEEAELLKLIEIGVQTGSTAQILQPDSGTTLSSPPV

B1: Flag-PIASy harboring a full-length PIASy (protein, UniProt Q8N2W9 1-510)
chain: MAAELVEAKNMVMSFRVSDLQMLLGFVGRSKSGLKHELVTRALQLVQFDCSPELFKKIKELYETRYAKKNSEPAPQPHRPLDPLTMHSTYDRAGAVPRTPLAGPNIDYPVLYGKYLNGLGRLPAKTLKPEVRLVKLPFFNMLDELLKPTELVPQNNEKLQESPCIFALTPRQVELIRNSRELQPGVKAVQVVLRICYSDTSCPQEDQYPPNIAVKVNHSYCSVPGYYPSNKPGVEPKRPCRPINLTHLMYLSSATNRITVTWGNYGKSYSVALYLVRQLTSSELLQRLKTIGVKHPELCKALVKEKLRLDPDSEIATTGVRVSLICPLVKMRLSVPCRAETCAHLQCFDAVFYLQMNEKKPTWMCPVCDKPAPYDQLIIDGLLSKILSECEDADEIEYLVDGSWCPIRAEKERSCSPQGAILVLGPSDANGLLPAPSVNGSGALGSTGGGGPVGSMENGKPGADVVDLTLDSSSSSEDEEEEEEEEEDEDEEGPRPKRRCPFQKGLVPAC

Legend:
[1] = molecular target: Flag-Msx1 (human Msx1-expression construct, full-length Msx1 cDNA in the 3x-Flag vector) (human) (UniProt P28360); assay: co-IP; 293T cells transfected with Flag-Msx1 and pcDNA-VEGFR1 or pcDNA-VEGFR2; whole cell lysates; immunoprecipitation with anti-Flag, immunoblot with anti-VEGFR1 or anti-VEGFR2 antibody
[2] = molecular target: Msx1 expressed from the adenovirus vector Ad-Msx1 (full-length mouse Msx1 cDNA) (mouse) (UniProt P13297); assay: co-IP; HEK 293 cells infected with Ad-Msx1 and transiently transfected with Flag-PIASy; RIPA lysates; immunoprecipitation with anti-Msx1 antibody, immunoblot with anti-Flag antibody

| Molecule | binding [1] | binding [2] |
| --- | --- | --- |
| VEGFR1 expressed from pcDNA-VEGFR1 (from UniProt P17948 27-1338) (receptor) | no binding | – |
| VEGFR2 expressed from pcDNA-VEGFR2 (from UniProt P35968 20-1356) (receptor) | binds | – |
| B1 | – | binds |
